Where “and” joins values, the source holds several entries; their conditions need not be identical. Equal values may be shown once. Some of the results follow. Several reference drugs read as weak here; read low effects with care.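 Prematurely aging human mesenchymal stem cells without the Werner syndrome gene were monitored by automated live-cell imaging over three biological repeats. The top twenty drugs for increasing growth versus vehicle moved forward; no fixed cutoff was specified.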 Square brackets hold non-standard residues; d marks the D form. Peptide text beside a SMILES is read from it. pGlu = O=C1CC[C@@H](C(=O)O)N1; Thz = O=C(O)[C@@H]1CSCN1
Test system: Werner syndrome hMSCs (WRN-/-)
Assay: relative cell density (fold change vs vehicle control); higher = more proliferation (geroprotective)
Settings: concentration (umol/L): 1, 6 days

Row | SMILES | relative cell density (vehicle: DMSO) | relative cell density (vehicle: Water)
1 | Oc1c(Cl)cc(Cl)c2cccnc12 | 0.937 | 
2 | c1ccc(-c2ccc(C(c3ccccc3)n3ccnc3)cc2)cc1 (configuration not stated) | 1.14 | 
3 | O=C1CC[C@@H](C(=O)N2CSC[C@H]2C(=O)O)N1 ([pGlu]-[Thz]-OH) | 1 | 
4 | COC(=O)C1=C(C)NC(C)=C(C(=O)OC(C)(C)CN(C)CCC(c2ccccc2)c2ccccc2)C1c1cccc([N+](=O)[O-])c1 (configuration not stated) | 1.41 | 
5 | CCCCc1oc2ccc(NS(C)(=O)=O)cc2c1C(=O)c1ccc(OCCCN(CCCC)CCCC)cc1 | 1.5 | 
6 | CCC1(c2ccccc2)C(=O)NCNC1=O | 1.05 | 
7 | COc1cccc2c1C(=O)c1c(O)c3c(c(O)c1C2=O)CC(O)(C(=O)CO)CC3OC1CC(N)C(O)C(C)O1 (configuration not stated) | 0.0817 | 
8 | COc1cc(Nc2c(C#N)cnc3cc(OCCCN4CCN(C)CC4)c(OC)cc23)c(Cl)cc1Cl | 1.04 | 
9 | Cc1cc(C#N)cc(C)c1Oc1nc(Nc2ccc(C#N)cc2)nc(N)c1Br | 1.03 | 
10 | Cc1nnc(SCC2=C(C(=O)O)N3C(=O)[C@@H](NC(=O)Cn4cnnn4)[C@H]3SC2)s1 | 1.18 | 
11 | O=c1[nH]c(=O)n([C@H]2C[C@H](O)[C@@H](CO)O2)cc1C(F)(F)F | 1.05 | 
12 | CC1(C)S[C@@H]2[C@H](NC(=O)COc3ccccc3)C(=O)N2[C@H]1C(=O)O |  | 1.16
13 | c1cc(CN2CCCNCCNCCCNCC2)ccc1CN1CCCNCCNCCCNCC1 |  | 1.71
14 | CN(Cc1ccc(C(C)(C)C)cc1)Cc1cccc2ccccc12 | 1.15 | 
15 | Cc1ccccc1C(=O)Nc1ccc(C(=O)N2CCCC(N(C)C)c3ccccc32)cc1 (configuration not stated) |  | 1.15
16 | S=c1[nH]cnc2nc[nH]c12 | 1.07 | 
17 | Cc1cccc(Nc2ccncc2S(=O)(=O)NC(=O)NC(C)C)c1 |  | 0.792
18 | CC1(C)O[C@@H]2[C@@H](CO[C@@]3(COS(N)(=O)=O)OC(C)(C)O[C@@H]23)O1 | 1.34 | 
19 | COc1cc(NS(=O)(=O)c2ccc(N)cc2)nc(OC)n1 | 1.31 | 
20 | CCNC(=O)[C@@H]1CCCN1C(=O)[C@H](CCCNC(=N)N)NC(=O)[C@H](CC(C)C)NC(=O)[C@@H](CC(C)C)NC(=O)[C@H](Cc1ccc(O)cc1)NC(=O)[C@H](CO)NC(=O)[C@H](Cc1c[nH]c2ccccc12)NC(=O)[C@H](Cc1c[nH]cn1)NC(=O)[C@@H]1CCC(=O)N1 | 1.04 | 
21 | O=C1N=C(O)NC1(c1ccccc1)c1ccccc1 | 1.1 | 
22 | CC(C)Cn1cnc2c(N)nc3ccccc3c21 |  | 0.753
23 | NC(=O)N1c2ccccc2CC(=O)c2ccccc21 | 1.42 | 

Arranged by molecular weight (high to low): some entries from above.
Row | SMILES | relative cell density (vehicle: DMSO) | relative cell density (vehicle: Water)
13 | c1cc(CN2CCCNCCNCCCNCC2)ccc1CN1CCCNCCNCCCNCC1 |  | 1.71
17 | Cc1cccc(Nc2ccncc2S(=O)(=O)NC(=O)NC(C)C)c1 |  | 0.792
14 | CN(Cc1ccc(C(C)(C)C)cc1)Cc1cccc2ccccc12 | 1.15 | 

Remaining list, next part

Row | SMILES | relative cell density (vehicle: DMSO) | relative cell density (vehicle: Water)
24 | NC1=NCC2c3ccccc3Cc3ccccc3N12 (configuration not stated) | 1.16 | 
25 | CCCNC(C)C(=O)Nc1c(C)csc1C(=O)OC (configuration not stated) | 0.988 | 
26 | CNCc1ccc(-c2[nH]c3cc(F)cc4c3c2CCNC4=O)cc1 | 0.709 | 
27 | Cc1cn([C@H]2C[C@H](N=[N+]=[N-])[C@@H](CO)O2)c(=O)[nH]c1=O | 0.959 | 
28 | COc1ccc([C@@H]2Sc3ccccc3N(CCN(C)C)C(=O)[C@@H]2OC(C)=O)cc1 | 0.93 | 
29 | NS(=O)(=O)Cc1noc2ccccc12 | 1.09 | 
30 | CC(C[N+](C)(C)C)OC(N)=O (configuration not stated) | 1.29 | 
31 | NCCC(O)(P(=O)(O)O)P(=O)(O)O |  | 0.94
32 | Cc1ccc(Sc2ccccc2N2CCNCC2)c(C)c1 | 1.16 | 
33 | NCC(=O)CCC(=O)O | 0.974 | 
34 | O=C(CCCN1CCC(O)(c2ccc(Cl)cc2)CC1)c1ccc(F)cc1 | 1.24 | 
35 | O=C(O)C[C@H](O)C[C@H](O)/C=C/c1c(C2CC2)nc2ccccc2c1-c1ccc(F)cc1 | 0.386 | 
36 | Cc1ccc(C)c(OCCCC(C)(C)C(=O)O)c1 | 1.02 | 
37 | CC1(C)[C@@H](O)CC[C@]2(C)[C@H]3C(=O)C=C4[C@@H]5C[C@@](C)(C(=O)O)CC[C@]5(C)CC[C@@]4(C)[C@]3(C)CC[C@@H]12 | 1.08 | 
38 | COC(=O)CCc1ccc(OCC(O)CNC(C)C)cc1 (configuration not stated) | 1.22 | 
39 | NCCS | 1.17 | 
40 | COCCOC(=O)C1=C(C)NC(C)=C(C(=O)OC(C)C)C1c1cccc([N+](=O)[O-])c1 (configuration not stated) | 0.989 | 
41 | COc1c(C)c2c(c(O)c1C/C=C(\C)CCC(=O)OCCN1CCOCC1)C(=O)OC2 | 1.37 | 
42 | CN1C(C(=O)Nc2ccccn2)=C(O)c2ccccc2S1(=O)=O | 1.01 | 
43 | O=C(O)c1ccc(-n2nc(-c3ccccc3O)nc2-c2ccccc2O)cc1 | 0.833 | 
44 | C/C(O)=C(\C#N)C(=O)Nc1ccc(C(F)(F)F)cc1 | 0.527 | 
45 | COc1nc(C)cnc1NS(=O)(=O)c1cccnc1-c1ccc(-c2nnco2)cc1 | 0.968 | 
46 | N[C@@H](CC(=O)N1CCn2c(nnc2C(F)(F)F)C1)Cc1cc(F)c(F)cc1F | 1.15 and 1.08 | 

Row | SMILES | relative cell density (vehicle: DMSO) | relative cell density (vehicle: Water)
47 | C=Cc1c(C)c2cc3nc(cc4[nH]c(cc5nc(cc1[nH]2)C(C)=C5CCC(=O)O)c(CCC(=O)OC)c4C)C1(C)C3=CC=C(C(=O)OC)C1C(=O)OC (configuration not stated) | 0.134 | 
48 | CO[C@H]1O[C@H](COS(=O)(=O)O)[C@@H](O[C@@H]2O[C@@H](C(=O)O)[C@@H](O[C@H]3O[C@H](COS(=O)(=O)O)[C@@H](O[C@@H]4O[C@H](C(=O)O)[C@@H](O[C@H]5O[C@H](COS(=O)(=O)O)[C@@H](O)[C@H](O)[C@H]5NS(=O)(=O)O)[C@H](O)[C@H]4O)[C@H](OS(=O)(=O)O)[C@H]3NS(=O)(=O)O)[C@H](O)[C@H]2OS(=O)(=O)O)[C@H](O)[C@H]1NS(=O)(=O)O |  | 0.953
49 | CO/N=C(\C(=O)N[C@@H]1C(=O)N2C(C(=O)O)=C(CSC(=O)c3ccco3)CS[C@H]12)c1csc(N)n1 | 1.19 | 
50 | CN1[C@@H]2CC[C@H]1C[C@@H](OC(c1ccccc1)c1ccccc1)C2 | 1.04 | 
51 | C[C@@H]1O[C@@H](OC[C@H]2O[C@@H](Oc3c(-c4ccc(O)c(O)c4)oc4cc(O)cc(O)c4c3=O)[C@H](O)[C@@H](O)[C@@H]2O)[C@H](O)[C@H](O)[C@H]1O | 1.46 | 
52 | CCCC(=O)Nc1ccc(OCC(O)CNC(C)C)c(C(C)=O)c1 (configuration not stated) | 0.949 | 
53 | CC(=O)/N=c1/sc(S(N)(=O)=O)nn1C | 1.12 | 
54 | CC1=CC(=O)c2ccccc2C1=O | 1.15 | 
55 | Cc1ccc(C(=O)N(CCCN)[C@@H](c2nc3cc(Cl)ccc3c(=O)n2Cc2ccccc2)C(C)C)cc1 | 0.445 | 
56 | CCCCOC(=O)c1ccc(O)cc1 | 1.11 | 
57 | COCCCOc1cc(C[C@@H](C[C@H](N)[C@@H](O)C[C@H](C(=O)NCC(C)(C)C(N)=O)C(C)C)C(C)C)ccc1OC | 1.3 | 
58 | CCCc1nc2c(C)cc(-c3nc4ccccc4n3C)cc2n1Cc1ccc(-c2ccccc2C(=O)O)cc1 | 0.92 | 
59 | CN(C)c1cc(NC(=O)CNC(C)(C)C)c(O)c2c1CC1CC3C(N(C)C)C(=O)C(C(N)=O)=C(O)C3(O)C(=O)C1=C2O (configuration not stated) | 1.42 | 
60 | CCCCC1C(=O)N(c2ccccc2)N(c2ccccc2)C1=O | 1.02 | 
61 | COc1cc2ncnc(Nc3ccc(F)c(Cl)c3)c2cc1NC(=O)/C=C/CN1CCCCC1 | 0.859 | 
62 | Cc1ccc(C(=O)C(C)CN2CCCCC2)cc1 (configuration not stated) | 1.46 | 
63 | CNCC[C@@H](Oc1ccccc1C)c1ccccc1 | 0.0849 | 
64 | CC(C)(O)CNc1nc(Nc2ccnc(C(F)(F)F)c2)nc(-c2cccc(C(F)(F)F)n2)n1 | 1.06 | 
65 | COCCCOc1ccnc(C[S+]([O-])c2nc3ccccc3[nH]2)c1C (configuration not stated) | 1.27 | 
66 | O=C(O)Cc1cc(I)c(Oc2ccc(O)c(I)c2)c(I)c1 | 1.25 | 
67 | Cc1cc(Nc2ncc(Cl)c(Nc3ccccc3S(=O)(=O)C(C)C)n2)c(OC(C)C)cc1C1CCNCC1 | 1.21 | 
68 | C[C@@H](Oc1cc(-c2cnn(C3CCNCC3)c2)cnc1N)c1c(Cl)ccc(F)c1Cl | 0.865 | 
69 | CC[C@H](C)C(=O)O[C@H]1C[C@H](O)C=C2C=C[C@H](C)[C@H](CC[C@@H](O)C[C@@H](O)CC(=O)O)[C@H]21 | 0.954 | 

Row | SMILES | relative cell density (vehicle: DMSO) | relative cell density (vehicle: Water)
70 | Cc1cccn2c(=O)c(-c3nnn[nH]3)cnc12 |  | 0.75
71 | CC1=C(C(=O)O)N2C(=O)[C@@H](NC(=O)[C@H](N)c3ccccc3)[C@H]2SC1 |  | 1.04
72 | CC(C)(C)NCC(O)COc1cccc2c1CC(O)C(O)C2 (configuration not stated) | 1.21 | 
73 | Nc1ccccc1NC(=O)c1ccc(CNc2nccc(-c3cccnc3)n2)cc1 | 0.606 | 
74 | COc1cc2c(cc1Cc1cccc(Cl)c1F)c(=O)c(C(=O)O)cn2[C@H](CO)C(C)C | 1.07 | 
75 | COc1ccc2c(c1)c(CC(=O)OCC(=O)O)c(C)n2C(=O)c1ccc(Cl)cc1 | 0.957 | 
76 | Cc1nccn1CC1CCc2c(c3ccccc3n2C)C1=O (configuration not stated) | 0.993 and 1.23 | 
77 | CC(=O)NC[C@H]1CN(c2ccc(N3CCOCC3)c(F)c2)C(=O)O1 | 1.2 | 
78 | CC(=O)O[C@]1(C(C)=O)CC[C@H]2[C@@H]3C=C(C)C4=CC(=O)CC[C@]4(C)[C@H]3CC[C@@]21C | 0.953 | 
79 | C=C1[C@H](CO)[C@@H](O)C[C@@H]1n1cnc2c(=O)[nH]c(N)nc21 | 1.24 | 
80 | CN(C)C(=O)c1cc2cnc(Nc3ccc(N4CCNCC4)cn3)nc2n1C1CCCC1 | 1.1 | 
81 | CC/C=C(\C(=O)N[C@@H]1C(=O)N2C(C(=O)OCOC(=O)C(C)(C)C)=C(COC(N)=O)CS[C@H]12)c1csc(N)n1 | 1.19 | 
82 | Cc1c(C)c2c(c(C)c1O)CCC(C)(CCCC(C)CCCC(C)CCCC(C)C)O2 (configuration not stated) | 1.33 | 
83 | Nc1nc(=O)[nH]cc1F | 1.13 | 
84 | CC[C@@]1(O)C(=O)OCc2c1cc1n(c2=O)Cc2cc3c(CN(C)C)c(O)ccc3nc2-1 | 0.052 | 
85 | CCOC(=O)N[C@@H]1CC[C@@H]2[C@@H](C1)C[C@H]1C(=O)O[C@H](C)[C@H]1[C@H]2/C=C/c1ccc(-c2cccc(F)c2)cn1 | 1.18 | 
86 | Cc1cc(Nc2cc(CN3CCOCC3)c3nc(C)c(Cc4ccc(Cl)cc4F)n3n2)n[nH]1 | 0.888 | 
87 | Nc1nnc(-c2cccc(Cl)c2Cl)c(N)n1 | 1.28 | 
88 | CC(=O)NC(CCC(N)=O)C(=O)O (configuration not stated) | 1.12 | 
89 | CC(=O)[O-].[K+] | 1.24 | 
90 | CCN1CCC[C@H]1CNC(=O)c1cc(S(N)(=O)=O)ccc1OC | 1.12 | 
91 | Nc1ccc(S(N)(=O)=O)cc1 | 1.21 | 
92 | CCOc1nc2cccc(C(=O)OC(C)OC(=O)OC3CCCCC3)c2n1Cc1ccc(-c2ccccc2-c2nn[nH]n2)cc1 (configuration not stated) | 1.33 | 

Another view of some results above.
CC(C)(C)NCC(O)COc1cccc2c1CC(O)C(O)C2 (configuration not stated)
  relative cell density (vehicle: DMSO): 1.21
Nc1ccccc1NC(=O)c1ccc(CNc2nccc(-c3cccnc3)n2)cc1
  relative cell density (vehicle: DMSO): 0.606
Cc1nccn1CC1CCc2c(c3ccccc3n2C)C1=O (configuration not stated)
  relative cell density (vehicle: DMSO): 0.993 and 1.23
CC(=O)O[C@]1(C(C)=O)CC[C@H]2[C@@H]3C=C(C)C4=CC(=O)CC[C@]4(C)[C@H]3CC[C@@]21C
  relative cell density (vehicle: DMSO): 0.953

— the supplement of paper PMC9226226
